# Some of the results follow. Only a few entries rise above the background.
# B1: 4-127.3 (protein)
# chain 1: QVQLQESGPGLVKPSETLSLTCAVSGYSISSGYGWSWIRQPPGKGLEWIGYIGGSSGSTNYNPSLKSRVTVSKDTSKNQFSLKLSSVTAADTAVYYCARADYCTSTTCYGPNRFDVWGPGVLVTVSS
# chain 2: QAAPTQSPSVSGSAGQSVTISCTGSSSDIGYYNGVSWYQHHPGKAPKLMIYEVSKRPSGVSNRFSGSKSGNTASLTISGLQAADEADYFCSSYAGSGTYIFGAGTRLTVL
# What was measured:
# Experiment in all cases: fluorescence intensity of antibody binding to polysaccharide-coupled beads; higher = stronger binding
# [1] = biological target: pneumococcal polysaccharide Pn41A
# Procedure: (§1)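 Recombinant rhesus-murine chimeric IgG1 antibodies were tested against antigen-coupled MagPlex beads in a 96-plex Luminex direct immunoassay (dLIA). The beads carried pneumococcal capsular polysaccharides of 93 serotypes plus C-polysaccharides. Antibody was added at 0.1–12,500 ng/mL for 1 h, then PE anti-mouse IgG, and net MFI was read on a Bio-Plex 3D. Only the rhesus variable regions are printed; constant regions are murine IgG1/kappa/lambda, and the signal peptide is MGWSCIILFLVATATGVHS.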
# [2] = biological target: pneumococcal polysaccharide Pn41F
# Procedure: as §1
# [3] = biological target: pneumococcal polysaccharide Pn42
# Procedure: as §1
# [4] = biological target: pneumococcal polysaccharide Pn43
# Procedure: as §1
# [5] = biological target: pneumococcal polysaccharide Pn44
# Procedure: as §1
# [6] = biological target: pneumococcal polysaccharide Pn45
# Procedure: as §1
# [7] = biological target: pneumococcal polysaccharide Pn46
# Procedure: as §1
# [8] = biological target: pneumococcal polysaccharide Pn47A
# Procedure: as §1
# [9] = biological target: pneumococcal polysaccharide Pn47F
# Procedure: as §1
# [10] = biological target: pneumococcal polysaccharide Pn48
# Procedure: as §1
# [11] = biological target: pneumococcal polysaccharide Pn5
# Procedure: as §1
# [12] = biological target: pneumococcal polysaccharide Pn6A
# Procedure: as §1
# [13] = biological target: pneumococcal polysaccharide Pn6B
# Procedure: as §1
# [14] = biological target: pneumococcal polysaccharide Pn6C
# Procedure: as §1
# [15] = biological target: pneumococcal polysaccharide Pn6D
# Procedure: as §1
# [16] = biological target: pneumococcal polysaccharide Pn7A
# Procedure: as §1
# [17] = biological target: pneumococcal polysaccharide Pn7B
# Procedure: as §1
# [18] = biological target: pneumococcal polysaccharide Pn7C
# Procedure: as §1
# [19] = biological target: pneumococcal polysaccharide Pn7F
# Procedure: as §1
# [20] = biological target: pneumococcal polysaccharide Pn8
# Procedure: as §1
# [21] = biological target: pneumococcal polysaccharide Pn9A
# Procedure: as §1
# [22] = biological target: pneumococcal polysaccharide Pn9L
# Procedure: as §1
# [23] = biological target: pneumococcal polysaccharide Pn9N
# Procedure: as §1
# [24] = antibody concentration 2.8593 ng/mL
# [25] = antibody concentration 15.2894 ng/mL
# [26] = antibody concentration 81.7561 ng/mL
# [27] = antibody concentration 437.17 ng/mL
# [28] = antibody concentration 2337.65 ng/mL
# [29] = antibody concentration 12500 ng/mL
# [30] = antibody concentration 0.1 ng/mL
# [31] = antibody concentration 0.534724 ng/mL
binder,measurement,setting,value
B1,fluorescence intensity,[1]; [24],24 MFI
same,fluorescence intensity,[1]; [25],24 MFI
same,fluorescence intensity,[1]; [26],24.5 MFI
same,fluorescence intensity,[1]; [27],24.5 MFI
same,fluorescence intensity,[1]; [28],26 MFI
same,fluorescence intensity,[1]; [29],31.5 MFI
same,fluorescence intensity,[2]; [30],14 MFI
same,fluorescence intensity,[2]; [31],12.8 MFI
same,fluorescence intensity,[2]; [24],13.5 MFI
same,fluorescence intensity,[2]; [25],13 MFI
same,fluorescence intensity,[2]; [26],14 MFI
same,fluorescence intensity,[2]; [27],13.5 MFI
same,fluorescence intensity,[2]; [28],14 MFI
same,fluorescence intensity,[2]; [29],21 MFI
same,fluorescence intensity,[3]; [30],12 MFI
same,fluorescence intensity,[3]; [31],12 MFI
same,fluorescence intensity,[3]; [24],11.5 MFI
same,fluorescence intensity,[3]; [25],11.5 MFI
same,fluorescence intensity,[3]; [26],11.5 MFI
same,fluorescence intensity,[3]; [27],12.5 MFI
same,fluorescence intensity,[3]; [28],15 MFI
same,fluorescence intensity,[3]; [29],26.5 MFI
same,fluorescence intensity,[4]; [30],15.5 MFI
same,fluorescence intensity,[4]; [31],16 MFI
same,fluorescence intensity,[4]; [24],16.2 MFI
same,fluorescence intensity,[4]; [25],16.5 MFI
same,fluorescence intensity,[4]; [26],16.5 MFI
same,fluorescence intensity,[4]; [27],18 MFI
same,fluorescence intensity,[4]; [28],26 MFI
same,fluorescence intensity,[4]; [29],89.5 MFI
same,fluorescence intensity,[5]; [30],24.5 MFI
same,fluorescence intensity,[5]; [31],25.5 MFI
same,fluorescence intensity,[5]; [24],26 MFI
same,fluorescence intensity,[5]; [25],27 MFI
same,fluorescence intensity,[5]; [26],26 MFI
same,fluorescence intensity,[5]; [27],28 MFI
same,fluorescence intensity,[5]; [28],28 MFI
same,fluorescence intensity,[5]; [29],37 MFI
same,fluorescence intensity,[6]; [30],12 MFI
same,fluorescence intensity,[6]; [31],11 MFI
same,fluorescence intensity,[6]; [24],10.5 MFI
same,fluorescence intensity,[6]; [25],10.5 MFI
same,fluorescence intensity,[6]; [26],12 MFI
same,fluorescence intensity,[6]; [27],11 MFI
same,fluorescence intensity,[6]; [28],13.5 MFI
same,fluorescence intensity,[6]; [29],18.8 MFI
same,fluorescence intensity,[7]; [30],24 MFI
same,fluorescence intensity,[7]; [31],22.8 MFI
same,fluorescence intensity,[7]; [24],24.5 MFI
same,fluorescence intensity,[7]; [25],23.8 MFI
same,fluorescence intensity,[7]; [26],23 MFI
same,fluorescence intensity,[7]; [27],24 MFI
same,fluorescence intensity,[7]; [28],25.5 MFI
same,fluorescence intensity,[7]; [29],54 MFI
same,fluorescence intensity,[8]; [30],14.5 MFI
same,fluorescence intensity,[8]; [31],16 MFI
same,fluorescence intensity,[8]; [24],15 MFI
same,fluorescence intensity,[8]; [25],16 MFI
same,fluorescence intensity,[8]; [26],16 MFI
same,fluorescence intensity,[8]; [27],15.8 MFI
same,fluorescence intensity,[8]; [28],17 MFI
same,fluorescence intensity,[8]; [29],23.8 MFI
same,fluorescence intensity,[9]; [30],14 MFI
same,fluorescence intensity,[9]; [31],12 MFI
same,fluorescence intensity,[9]; [24],11.8 MFI
same,fluorescence intensity,[9]; [25],13 MFI
same,fluorescence intensity,[9]; [26],13.5 MFI
same,fluorescence intensity,[9]; [27],13 MFI
same,fluorescence intensity,[9]; [28],14 MFI
same,fluorescence intensity,[9]; [29],38.5 MFI
same,fluorescence intensity,[10]; [30],21.5 MFI
same,fluorescence intensity,[10]; [31],22 MFI
same,fluorescence intensity,[10]; [24],21.5 MFI
same,fluorescence intensity,[10]; [25],21.8 MFI
same,fluorescence intensity,[10]; [26],23 MFI
same,fluorescence intensity,[10]; [27],23.8 MFI
same,fluorescence intensity,[10]; [28],31 MFI
same,fluorescence intensity,[10]; [29],43.2 MFI
same,fluorescence intensity,[11]; [30],9 MFI
same,fluorescence intensity,[11]; [31],8.5 MFI
same,fluorescence intensity,[11]; [24],8.5 MFI
same,fluorescence intensity,[11]; [25],9 MFI
same,fluorescence intensity,[11]; [26],8.5 MFI
same,fluorescence intensity,[11]; [27],10.5 MFI
same,fluorescence intensity,[11]; [28],10.5 MFI
same,fluorescence intensity,[11]; [29],43 MFI
same,fluorescence intensity,[12]; [30],24.8 MFI
same,fluorescence intensity,[12]; [31],22.8 MFI
same,fluorescence intensity,[12]; [24],22.5 MFI
same,fluorescence intensity,[12]; [25],21.5 MFI
same,fluorescence intensity,[12]; [26],23 MFI
same,fluorescence intensity,[12]; [27],22.5 MFI
same,fluorescence intensity,[12]; [28],26 MFI
same,fluorescence intensity,[12]; [29],37.5 MFI
same,fluorescence intensity,[13]; [30],20 MFI
same,fluorescence intensity,[13]; [31],19.5 MFI
same,fluorescence intensity,[13]; [24],20.8 MFI
same,fluorescence intensity,[13]; [25],20.5 MFI
same,fluorescence intensity,[13]; [26],20 MFI
same,fluorescence intensity,[13]; [27],20.5 MFI
same,fluorescence intensity,[13]; [28],23.5 MFI
same,fluorescence intensity,[13]; [29],35 MFI
same,fluorescence intensity,[14]; [30],21.5 MFI
same,fluorescence intensity,[14]; [31],34 MFI
same,fluorescence intensity,[14]; [24],58.5 MFI
same,fluorescence intensity,[14]; [25],76.5 MFI
same,fluorescence intensity,[14]; [26],65 MFI
same,fluorescence intensity,[14]; [27],73.8 MFI
same,fluorescence intensity,[14]; [28],81.2 MFI
same,fluorescence intensity,[14]; [29],108 MFI
same,fluorescence intensity,[15]; [30],18.8 MFI
same,fluorescence intensity,[15]; [31],19 MFI
same,fluorescence intensity,[15]; [24],16.5 MFI
same,fluorescence intensity,[15]; [25],18.2 MFI
same,fluorescence intensity,[15]; [26],18 MFI
same,fluorescence intensity,[15]; [27],19 MFI
same,fluorescence intensity,[15]; [28],20 MFI
same,fluorescence intensity,[15]; [29],23.5 MFI
same,fluorescence intensity,[16]; [30],21.5 MFI
same,fluorescence intensity,[16]; [31],19.8 MFI
same,fluorescence intensity,[16]; [24],20.5 MFI
same,fluorescence intensity,[16]; [25],21.5 MFI
same,fluorescence intensity,[16]; [26],20.5 MFI
same,fluorescence intensity,[16]; [27],21.5 MFI
same,fluorescence intensity,[16]; [28],33.5 MFI
same,fluorescence intensity,[16]; [29],117 MFI
same,fluorescence intensity,[17]; [30],17.2 MFI
same,fluorescence intensity,[17]; [31],17.5 MFI
same,fluorescence intensity,[17]; [24],16 MFI
same,fluorescence intensity,[17]; [25],17.2 MFI
same,fluorescence intensity,[17]; [26],16.5 MFI
same,fluorescence intensity,[17]; [27],16 MFI
same,fluorescence intensity,[17]; [28],19.5 MFI
same,fluorescence intensity,[17]; [29],35.5 MFI
same,fluorescence intensity,[18]; [30],16.2 MFI
same,fluorescence intensity,[18]; [31],16 MFI
same,fluorescence intensity,[18]; [24],17 MFI
same,fluorescence intensity,[18]; [25],15.5 MFI
same,fluorescence intensity,[18]; [26],17.8 MFI
same,fluorescence intensity,[18]; [27],17.5 MFI
same,fluorescence intensity,[18]; [28],17.5 MFI
same,fluorescence intensity,[18]; [29],31 MFI
same,fluorescence intensity,[19]; [30],15.5 MFI
same,fluorescence intensity,[19]; [31],15 MFI
same,fluorescence intensity,[19]; [24],14.5 MFI
same,fluorescence intensity,[19]; [25],16 MFI
same,fluorescence intensity,[19]; [26],15.5 MFI
same,fluorescence intensity,[19]; [27],18 MFI
same,fluorescence intensity,[19]; [28],26 MFI
same,fluorescence intensity,[19]; [29],80.2 MFI
same,fluorescence intensity,[20]; [30],22 MFI
same,fluorescence intensity,[20]; [31],22 MFI
same,fluorescence intensity,[20]; [24],21 MFI
same,fluorescence intensity,[20]; [25],22 MFI
same,fluorescence intensity,[20]; [26],23 MFI
same,fluorescence intensity,[20]; [27],25 MFI
same,fluorescence intensity,[20]; [28],30 MFI
same,fluorescence intensity,[20]; [29],47.2 MFI
same,fluorescence intensity,[21]; [30],21 MFI
same,fluorescence intensity,[21]; [31],21 MFI
same,fluorescence intensity,[21]; [24],21 MFI
same,fluorescence intensity,[21]; [25],19.5 MFI
same,fluorescence intensity,[21]; [26],19 MFI
same,fluorescence intensity,[21]; [27],19.8 MFI
same,fluorescence intensity,[21]; [28],22 MFI
same,fluorescence intensity,[21]; [29],39.5 MFI
same,fluorescence intensity,[22]; [30],18 MFI
same,fluorescence intensity,[22]; [31],18.5 MFI
same,fluorescence intensity,[22]; [24],17 MFI
same,fluorescence intensity,[22]; [25],17.5 MFI
same,fluorescence intensity,[22]; [26],16.5 MFI
same,fluorescence intensity,[22]; [27],17.2 MFI
same,fluorescence intensity,[22]; [28],19.2 MFI
same,fluorescence intensity,[22]; [29],29 MFI
same,fluorescence intensity,[23]; [30],15.8 MFI
same,fluorescence intensity,[23]; [31],16.2 MFI
same,fluorescence intensity,[23]; [24],15.5 MFI
same,fluorescence intensity,[23]; [25],15.5 MFI
same,fluorescence intensity,[23]; [26],17 MFI
same,fluorescence intensity,[23]; [27],16.5 MFI

# Four records picked at random from those above, as already listed:
binder,measurement,setting,value
B1,fluorescence intensity,[18]; [24],17 MFI
same,fluorescence intensity,[12]; [27],22.5 MFI
same,fluorescence intensity,[16]; [27],21.5 MFI
same,fluorescence intensity,[15]; [25],18.2 MFI

# Some of the entries so far, as tab-separated lines:
binder	measurement	setting	value
B1	fluorescence intensity	[2]; [29]	21 MFI
same	fluorescence intensity	[6]; [25]	10.5 MFI
same	fluorescence intensity	[8]; [29]	23.8 MFI
same	fluorescence intensity	[18]; [26]	17.8 MFI

# From the supplement of paper PMC11438910
